In US8236523B2, “Camp reporters and high throughput assays” (The Johns Hopkins University, priority 2004, dated 2012):
At least one compound was matched to its structure with a doubt left. Some entries share one result that the patent states for a list of compounds.

Key:
Format in all cases: cell-based
cAMP [1] = assay: Dual-emission ratio (FRET) imaging of Epac-based cAMP reporters (ICUE1 and targeted fusions) in HEK-293 cells; settings: HEK293 cells expressing ICUE1; 10 μM ISO, 50 μM FSK, 10 μM PGE1
Method: Cell Culture. […] Cells were then transfected with FuGENE-6 transfection reagent (Roche) or calcium phosphate and allowed to grow for 12-24 hours before imaging.
Imaging. Cells were washed twice with Hanks' balanced salt solution buffer after 12- to 24-h incubation at 37° C. culture medium. Cells were maintained in buffer in the dark at room temperature with addition of isoproterenol (Aldrich), forskolin (Calbiochem), Prostaglandin E1 (PGE1) (Sigma), and 8-(4-chloro-phenylthio)-2′-O-methyl adenosine 3′,5′-monophosphate (8-pCPT-2′-O-Me-cAMP) (Axxora Biolog) as indicated. Cells were also treated with P-(4,5-dimethoxy-2-nitrobenzyl) adenosine 3′,5′-monophosphate (DMNB-cAMP) (Molecular Probe).
Cells were imaged on a Zeiss Axiovert 200M microscope with a cooled charge-coupled device camera MicroMAX BFT512 (Roper Scientific) controlled by METAFLUOR 6.2 software (Universal Imaging). Dual-emission ratio imaging used a 420DF20 excitation filter, a 450DRLP dichroic mirror and two emission filters (475DF40 for ECFP, 535DF25 for citrine) alternated by a filter changer Lambda 10-2 (Sutter Instruments). Exposure time was 100-500 ms and images were taken every 8-30 s. […] The ratios of cyan to yellow emissions were then calculated at different time points and normalized by dividing all ratios by the emission ratio just prior to stimulation therefore setting the basal emission ratio to 1.

cAMP [2] = assay: High throughput 96-well plate assay using ICUE2 stable HEK293 cells; settings: 1 μM ISO, 100 μM IBMX, 50 μM FSK
Method: HEK293 cells which stably express ICUE2 (“ICUE2 stable HEK293 cells”) were grown to confluency in 10 cm dishes in DMEM, 10% FBS, 1% penicillin/streptomycin, and 250 μg/ml G418. HEK-293 cells were transfected with cDNA encoding ICUE2 using calcium phosphate at 40% confluency and allowed to grow for 40 hours. Cells were removed from the dish using 0.05% trypsin, spun down, and replaced with fresh media. ICUE2 stable HEK293 cells were counted on a hemocytometer using trypan blue stain. One hundred fifty thousand (150,000) cells were plated per well on a 96-well clear bottom assay plate in a total of 0.2 ml of media per […] and allowed to double once. Media was removed, cells were washed with Hanks buffered salt solution (HBSS) and then covered with 0.05 ml of HBSS per well. In a separate sterile plate, appropriate drugs were added to each well containing HBSS for a total volume of 0.05 ml. […] A baseline was established in three cycles, each consisting of a full plate reading of yellow intensity, followed by a reading of cyan intensity. Cells were then treated with isoproterenol (ISO; […] Readings were taken in six or twenty additional cycles. […] Baseline FRET ratios were calculated as the average ratio of yellow/cyan for each well before the addition of drug. FRET change was calculated as the percent increase of FRET ratio over baseline for each well during a given cycle. […]

cAMP [3] = assay: 96-well live cell plate reading of HEK293 cells expressing ICUE3; settings: 1 μM ISO, 50 μM FSK
Method: Plate reading used a 420DF20 excitation filter and two emission filters (470DF40 for cyan and 535DF25 for yellow). A baseline was established in three cycles, each consisting of a full plate reading of yellow intensity, followed by a reading of cyan intensity. Cells were then treated with isoproterenol (ISO; Aldrich), forskolin (Calbiochem), H89, propranolol, and 3-isobutyl-1-methylxanthine (IBMX) as indicated. Readings were taken in six or twenty additional cycles. Each cycle lasted 60 to 145 sec. Baseline FRET ratios were calculated as the average ratio of yellow/cyan for each well before the addition of drug. FRET change was calculated as the percent increase of FRET ratio over baseline for each well during a given cycle. […]
Live cell plate reading. […] Fluorescence reading was taken on a FLUOstar OPTIMA fluorescence microplate reader (BMG Labtechnologies Inc.) using a 420DF20 excitation filter and two emission filters (470DF40 for cyan and […] for yellow). A baseline was established in three cycles, each consisting of a full plate reading of yellow intensity, followed by a reading of cyan intensity. […] Readings were taken in additional cycles. FRET change was calculated as the percent increase of emission ratios (cyan-to-yellow) over baseline for each well during a given cycle. […]

Compound	time to plateau / maximal change in emission ratio (cAMP [1])	character of ICUE2 response (in words) (cAMP [2])	character of ICUE3 response (in words) (cAMP [3])
CCCCC[C@H](O)/C=C/[C@H]1[C@H](O)CC(=O)[C@@H]1CCCCCCC(=O)O [PGE1, Prostaglandin E1]	3 to 5 min	–	–
C=C[C@@]1(C)CC(=O)[C@]2(O)[C@@]3(C)[C@@H](O)CCC(C)(C)[C@@H]3[C@H](O)[C@H](OC(C)=O)[C@@]2(C)O1 [forskolin]	3 to 5 min	sustained responses	sustained response
